We go through 36 targets from the supplement of paper PMC12819154, “High-throughput peptide-centric local stability assay extends protein–ligand identification to membrane proteins, tissues and bacteria” (Nature Structural & Molecular Biology, 2025).

Amino acid sequences for entries named in this document (tags omitted). A change or cut given only in a name is not applied to a line headed by its entry.
UniProt Q8BL97: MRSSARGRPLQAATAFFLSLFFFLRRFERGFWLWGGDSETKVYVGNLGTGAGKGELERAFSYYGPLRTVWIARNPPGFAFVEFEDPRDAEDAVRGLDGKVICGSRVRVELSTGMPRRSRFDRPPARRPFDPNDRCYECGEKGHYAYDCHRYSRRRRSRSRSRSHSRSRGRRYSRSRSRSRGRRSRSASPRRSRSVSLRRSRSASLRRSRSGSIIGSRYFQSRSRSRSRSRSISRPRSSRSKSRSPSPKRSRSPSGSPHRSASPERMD
UniProt Q8BND5: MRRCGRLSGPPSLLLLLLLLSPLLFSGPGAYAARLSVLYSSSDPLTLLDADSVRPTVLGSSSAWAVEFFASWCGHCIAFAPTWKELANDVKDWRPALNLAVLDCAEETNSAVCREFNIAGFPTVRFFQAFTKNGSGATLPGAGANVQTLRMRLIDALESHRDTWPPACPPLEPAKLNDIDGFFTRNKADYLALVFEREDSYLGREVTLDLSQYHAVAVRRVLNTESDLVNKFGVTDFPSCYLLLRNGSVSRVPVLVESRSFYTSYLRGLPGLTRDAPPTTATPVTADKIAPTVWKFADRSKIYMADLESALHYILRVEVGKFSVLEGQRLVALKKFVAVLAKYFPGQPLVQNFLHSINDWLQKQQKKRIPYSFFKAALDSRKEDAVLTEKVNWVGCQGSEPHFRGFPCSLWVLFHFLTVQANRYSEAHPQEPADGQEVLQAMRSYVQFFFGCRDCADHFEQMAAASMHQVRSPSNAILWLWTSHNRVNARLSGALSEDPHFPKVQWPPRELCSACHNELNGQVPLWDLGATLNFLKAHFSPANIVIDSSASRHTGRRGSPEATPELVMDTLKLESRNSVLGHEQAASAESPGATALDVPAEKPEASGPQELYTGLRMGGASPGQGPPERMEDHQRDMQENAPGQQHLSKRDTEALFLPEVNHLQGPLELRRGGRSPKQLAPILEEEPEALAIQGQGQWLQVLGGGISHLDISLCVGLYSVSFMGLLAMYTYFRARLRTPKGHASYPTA
UniProt Q8BJA3: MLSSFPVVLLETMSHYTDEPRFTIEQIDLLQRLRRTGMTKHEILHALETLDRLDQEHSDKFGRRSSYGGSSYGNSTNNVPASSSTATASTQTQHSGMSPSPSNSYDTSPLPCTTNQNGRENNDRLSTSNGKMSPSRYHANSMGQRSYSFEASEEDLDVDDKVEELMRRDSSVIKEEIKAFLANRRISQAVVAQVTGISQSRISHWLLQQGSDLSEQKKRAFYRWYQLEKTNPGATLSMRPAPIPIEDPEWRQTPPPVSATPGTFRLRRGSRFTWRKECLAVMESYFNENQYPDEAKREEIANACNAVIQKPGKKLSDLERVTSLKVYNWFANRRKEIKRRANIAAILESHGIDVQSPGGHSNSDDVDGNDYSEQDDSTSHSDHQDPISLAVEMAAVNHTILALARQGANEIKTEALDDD
UniProt Q8BSU7: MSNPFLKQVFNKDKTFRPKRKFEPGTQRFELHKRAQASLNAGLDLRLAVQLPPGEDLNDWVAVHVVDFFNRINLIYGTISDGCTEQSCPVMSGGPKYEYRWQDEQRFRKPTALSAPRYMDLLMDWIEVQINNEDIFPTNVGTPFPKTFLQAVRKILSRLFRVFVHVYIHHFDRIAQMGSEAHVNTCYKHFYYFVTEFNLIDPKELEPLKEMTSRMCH
UniProt Q8BMZ5: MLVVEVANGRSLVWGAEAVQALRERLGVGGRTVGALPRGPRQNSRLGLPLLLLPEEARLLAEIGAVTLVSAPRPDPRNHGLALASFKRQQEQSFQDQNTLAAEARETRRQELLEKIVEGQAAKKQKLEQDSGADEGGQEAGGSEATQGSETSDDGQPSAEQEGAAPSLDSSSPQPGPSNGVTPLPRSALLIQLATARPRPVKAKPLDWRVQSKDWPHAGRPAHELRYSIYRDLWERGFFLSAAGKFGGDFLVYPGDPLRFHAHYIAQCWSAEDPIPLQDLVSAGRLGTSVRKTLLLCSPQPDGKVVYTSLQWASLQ
UniProt Q8BMI3: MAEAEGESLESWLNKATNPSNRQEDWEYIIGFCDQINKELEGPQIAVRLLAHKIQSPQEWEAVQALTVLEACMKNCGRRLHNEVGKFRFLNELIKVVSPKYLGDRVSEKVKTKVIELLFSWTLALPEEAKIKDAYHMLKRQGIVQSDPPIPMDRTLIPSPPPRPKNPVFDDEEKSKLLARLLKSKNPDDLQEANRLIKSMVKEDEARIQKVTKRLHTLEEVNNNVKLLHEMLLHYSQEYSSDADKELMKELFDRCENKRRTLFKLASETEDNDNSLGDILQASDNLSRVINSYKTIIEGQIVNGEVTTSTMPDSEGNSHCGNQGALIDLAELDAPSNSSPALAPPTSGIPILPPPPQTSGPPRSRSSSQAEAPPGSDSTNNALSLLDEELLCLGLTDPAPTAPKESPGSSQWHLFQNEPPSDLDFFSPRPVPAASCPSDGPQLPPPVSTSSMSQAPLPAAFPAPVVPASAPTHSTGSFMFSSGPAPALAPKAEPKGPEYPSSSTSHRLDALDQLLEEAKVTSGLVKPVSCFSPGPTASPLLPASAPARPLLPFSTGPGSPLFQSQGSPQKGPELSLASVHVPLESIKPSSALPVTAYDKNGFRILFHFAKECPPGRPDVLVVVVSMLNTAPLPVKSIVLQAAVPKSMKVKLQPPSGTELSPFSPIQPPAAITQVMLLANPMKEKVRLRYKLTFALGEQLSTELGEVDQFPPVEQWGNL
UniProt Q8BQY8: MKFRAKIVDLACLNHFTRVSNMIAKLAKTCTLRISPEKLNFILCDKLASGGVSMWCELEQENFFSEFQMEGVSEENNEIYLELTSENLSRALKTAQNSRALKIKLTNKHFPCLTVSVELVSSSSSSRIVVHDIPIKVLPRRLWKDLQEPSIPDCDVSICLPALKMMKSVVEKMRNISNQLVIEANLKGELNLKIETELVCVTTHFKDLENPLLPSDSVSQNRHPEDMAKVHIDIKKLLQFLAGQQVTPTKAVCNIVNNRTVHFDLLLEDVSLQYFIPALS
UniProt Q8BJ64: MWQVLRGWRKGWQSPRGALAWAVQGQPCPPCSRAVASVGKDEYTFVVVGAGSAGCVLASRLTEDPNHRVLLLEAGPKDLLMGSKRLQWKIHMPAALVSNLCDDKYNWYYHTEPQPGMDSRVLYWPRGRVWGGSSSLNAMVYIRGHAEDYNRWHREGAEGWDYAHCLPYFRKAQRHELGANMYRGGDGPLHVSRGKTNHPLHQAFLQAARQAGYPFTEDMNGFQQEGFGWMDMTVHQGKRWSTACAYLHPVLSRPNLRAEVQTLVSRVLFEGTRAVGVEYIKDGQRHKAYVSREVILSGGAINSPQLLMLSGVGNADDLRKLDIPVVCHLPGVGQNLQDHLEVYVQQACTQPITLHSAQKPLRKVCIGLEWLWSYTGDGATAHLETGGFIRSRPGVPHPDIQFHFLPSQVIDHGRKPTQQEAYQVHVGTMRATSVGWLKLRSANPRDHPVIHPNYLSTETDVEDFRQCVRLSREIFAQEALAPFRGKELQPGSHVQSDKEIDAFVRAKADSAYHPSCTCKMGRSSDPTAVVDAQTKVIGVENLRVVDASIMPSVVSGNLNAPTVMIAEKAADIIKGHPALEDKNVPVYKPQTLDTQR
UniProt Q8BJF9, whole entry: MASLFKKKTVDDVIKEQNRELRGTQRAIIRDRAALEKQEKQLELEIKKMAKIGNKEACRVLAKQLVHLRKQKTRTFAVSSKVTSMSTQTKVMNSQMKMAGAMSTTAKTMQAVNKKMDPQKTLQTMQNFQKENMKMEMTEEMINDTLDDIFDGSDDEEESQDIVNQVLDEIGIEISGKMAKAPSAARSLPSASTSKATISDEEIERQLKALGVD
UniProt Q8BMJ2: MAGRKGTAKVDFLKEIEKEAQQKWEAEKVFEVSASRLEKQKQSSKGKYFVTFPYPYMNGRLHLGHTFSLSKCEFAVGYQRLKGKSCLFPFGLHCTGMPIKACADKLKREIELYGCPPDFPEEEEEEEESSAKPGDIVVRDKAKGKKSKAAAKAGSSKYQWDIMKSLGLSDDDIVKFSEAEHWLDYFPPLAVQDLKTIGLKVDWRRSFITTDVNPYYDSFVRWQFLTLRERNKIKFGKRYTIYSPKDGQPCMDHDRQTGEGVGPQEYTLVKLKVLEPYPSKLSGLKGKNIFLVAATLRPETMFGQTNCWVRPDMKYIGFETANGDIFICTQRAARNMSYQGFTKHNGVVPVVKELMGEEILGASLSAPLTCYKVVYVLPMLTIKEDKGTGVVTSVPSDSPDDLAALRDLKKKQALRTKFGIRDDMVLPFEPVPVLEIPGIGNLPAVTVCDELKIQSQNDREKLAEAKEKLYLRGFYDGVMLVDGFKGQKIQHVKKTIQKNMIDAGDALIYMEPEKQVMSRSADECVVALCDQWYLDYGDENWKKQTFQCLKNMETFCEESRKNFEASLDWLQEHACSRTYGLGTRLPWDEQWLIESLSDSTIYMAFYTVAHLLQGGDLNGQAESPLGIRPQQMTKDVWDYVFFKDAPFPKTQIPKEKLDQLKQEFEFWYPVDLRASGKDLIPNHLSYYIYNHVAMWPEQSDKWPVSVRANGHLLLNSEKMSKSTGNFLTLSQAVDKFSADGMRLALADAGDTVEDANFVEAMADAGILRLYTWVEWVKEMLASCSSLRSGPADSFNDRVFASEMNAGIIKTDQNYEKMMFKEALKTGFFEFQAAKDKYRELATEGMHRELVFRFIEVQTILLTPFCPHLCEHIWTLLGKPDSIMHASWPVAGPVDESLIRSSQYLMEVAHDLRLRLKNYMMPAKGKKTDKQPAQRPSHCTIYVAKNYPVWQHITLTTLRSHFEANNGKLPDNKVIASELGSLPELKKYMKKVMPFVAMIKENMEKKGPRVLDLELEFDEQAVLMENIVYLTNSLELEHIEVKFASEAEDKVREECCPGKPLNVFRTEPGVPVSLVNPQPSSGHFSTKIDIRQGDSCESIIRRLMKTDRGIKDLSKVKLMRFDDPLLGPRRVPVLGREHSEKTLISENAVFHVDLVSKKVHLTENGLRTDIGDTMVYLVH
UniProt Q8BQJ6: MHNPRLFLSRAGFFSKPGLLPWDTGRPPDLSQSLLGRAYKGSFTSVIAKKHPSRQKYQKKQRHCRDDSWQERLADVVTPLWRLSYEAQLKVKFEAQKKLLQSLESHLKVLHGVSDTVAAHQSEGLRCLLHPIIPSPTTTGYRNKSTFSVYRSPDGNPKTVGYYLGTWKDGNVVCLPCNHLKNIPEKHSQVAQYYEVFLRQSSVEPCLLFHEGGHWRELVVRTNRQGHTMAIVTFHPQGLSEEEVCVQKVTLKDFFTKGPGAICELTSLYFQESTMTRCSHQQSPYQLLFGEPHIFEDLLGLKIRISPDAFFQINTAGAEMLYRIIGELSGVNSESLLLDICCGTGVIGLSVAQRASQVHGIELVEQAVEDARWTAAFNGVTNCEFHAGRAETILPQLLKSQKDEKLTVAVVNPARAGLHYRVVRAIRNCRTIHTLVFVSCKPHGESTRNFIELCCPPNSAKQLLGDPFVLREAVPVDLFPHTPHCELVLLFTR
UniProt Q8BK75: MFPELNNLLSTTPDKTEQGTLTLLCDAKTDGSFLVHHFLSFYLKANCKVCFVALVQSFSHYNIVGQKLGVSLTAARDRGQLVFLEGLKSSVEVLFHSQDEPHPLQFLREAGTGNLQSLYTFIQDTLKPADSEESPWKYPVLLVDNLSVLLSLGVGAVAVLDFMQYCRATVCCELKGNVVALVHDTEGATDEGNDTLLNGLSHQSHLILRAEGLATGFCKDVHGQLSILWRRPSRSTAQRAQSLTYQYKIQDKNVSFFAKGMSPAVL
UniProt Q8BMC4: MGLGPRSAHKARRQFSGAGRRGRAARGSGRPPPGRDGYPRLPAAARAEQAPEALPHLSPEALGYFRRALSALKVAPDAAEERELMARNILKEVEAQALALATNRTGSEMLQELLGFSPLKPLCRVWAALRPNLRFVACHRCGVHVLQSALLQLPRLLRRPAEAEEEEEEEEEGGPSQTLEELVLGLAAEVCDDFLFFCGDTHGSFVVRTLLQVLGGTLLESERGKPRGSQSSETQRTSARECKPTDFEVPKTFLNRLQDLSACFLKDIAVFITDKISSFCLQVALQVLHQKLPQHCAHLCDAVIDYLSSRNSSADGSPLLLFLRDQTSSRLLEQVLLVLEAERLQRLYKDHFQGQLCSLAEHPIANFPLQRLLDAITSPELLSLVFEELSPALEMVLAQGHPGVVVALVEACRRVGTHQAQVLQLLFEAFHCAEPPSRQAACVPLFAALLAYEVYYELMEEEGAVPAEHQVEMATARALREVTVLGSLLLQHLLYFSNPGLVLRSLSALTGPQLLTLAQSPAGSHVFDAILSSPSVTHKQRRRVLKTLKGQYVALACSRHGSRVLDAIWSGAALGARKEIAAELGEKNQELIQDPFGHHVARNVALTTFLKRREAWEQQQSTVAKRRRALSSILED
UniProt Q8BPA8: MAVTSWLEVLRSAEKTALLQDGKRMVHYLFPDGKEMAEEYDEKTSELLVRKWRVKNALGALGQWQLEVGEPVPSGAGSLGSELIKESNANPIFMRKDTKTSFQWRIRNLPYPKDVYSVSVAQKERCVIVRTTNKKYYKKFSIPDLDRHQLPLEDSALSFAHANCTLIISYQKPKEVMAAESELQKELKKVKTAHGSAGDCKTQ

The list shows a part of the results. Small differences around the control level are noise.

Compound in the assay: CN[C@@H]1C[C@H]2O[C@@](C)([C@@H]1OC)n1c3ccccc3c3c4c(c5c6ccccc6n2c5c31)C(=O)NC4 [staurosporine]
Put plainly: log2 fold change of tryptic peptide abundance, ligand vs vehicle (limited proteolysis) (log2 ratio); higher = more trypsin-susceptible (destabilized). As to conditions: ligand concentration: 20 uM; sample: mouse liver crude lysate; replicate design: treated separately.
On to “UniProt Q8BUH1 (peptide sequence: LIVQSPIDPK, peptide start residue: 128)”, for which the log2 fold change came out at 0.0737.
As for “UniProt Q8BL97 (peptide sequence: VYVGNLGTGAGKGELER, peptide start residue: 42)”, the figure is -0.172; as for “UniProt Q8BUL5 (peptide sequence: AEDQVYDAAVR, peptide start residue: 203)”, 0.304; as for “UniProt Q8BND5 (peptide sequence: DMQENAPGQQHLSK, peptide start residue: 636)”, 0.432.
As for “UniProt Q8BIJ6 (peptide sequence: SFAQAAIEK, peptide start residue: 186)”, the figure is -0.35; as for “UniProt Q8BJD1 (peptide sequence: TLFPNYFNGSEIVIAGK, peptide start residue: 501)”, -0.0658.
The same measure for “UniProt Q8BJA3 (peptide sequence: REEIANACNAVIQKPGK, peptide start residue: 297)”: 1.18; for “UniProt Q8BPU7 (peptide sequence: RQEMANILAQK, peptide start residue: 259)”: -0.349.
As for “UniProt Q8BMS1 (peptide sequence: GLYPAPLKIIDAVK, peptide start residue: 296)”, the log2 fold change worked out at 0.3.
The same measure for “UniProt Q8BM39 (peptide sequence: KEEEAYYER, peptide start residue: 36)”: 0.219; for “UniProt Q8BMB3 (peptide sequence: LLFQNLWKPR, peptide start residue: 232)”: 0.0106.
With “UniProt Q8BP01 (peptide sequence: SLQAAVDQR, peptide start residue: 82)”, the log2 fold change was -0.301.
As for “UniProt Q8BSU7 (peptide sequence: KFEPGTQR, peptide start residue: 20)”, the figure is -0.256.
The same measure for “UniProt Q8BMZ5 (peptide sequence: DWPHAGRPAHELR, peptide start residue: 214)”: -0.246; for “UniProt Q8BMI3 (peptide sequence: TLIPSPPPRPK, peptide start residue: 155)”: 0.296; for “UniProt Q8BPM0 (peptide sequence: NIPQPTNALK, peptide start residue: 602)”: -0.23.
“UniProt Q8BT35 (peptide sequence: RLQDKLATTQK, peptide start residue: 41)”: the log2 fold change was -0.447.
With “UniProt Q8BL06 (peptide sequence: LTLHDASSSTHSR, peptide start residue: 774)”, the log2 fold change is 0.491.
As for “UniProt Q8BJ71 (peptide sequence: GLFEEAAK, peptide start residue: 620)”, the figure is 0.142; as for “UniProt Q8BIK4 (peptide sequence: HSFDDRYNSR, peptide start residue: 1156)”, 0.391; as for “UniProt Q8BU85 (peptide sequence: LTPLQYHVTQEK, peptide start residue: 114)”, -0.21.
As for “UniProt Q8BQY8 (peptide sequence: IVDLACLNHFTR, peptide start residue: 7)”, the figure is 0.47; as for “UniProt Q8BLH7 (peptide sequence: TLDSEEEQPR, peptide start residue: 572)”, 0.132.
The same measure for “UniProt Q8BT51 (peptide sequence: KDDDEEDPLDQLITR, peptide start residue: 17)”: 0.235; for “UniProt Q8BJ64 (peptide sequence: AADIIKGHPALEDK, peptide start residue: 569)”: -0.485.
Regarding “UniProt Q8BJF9 (peptide sequence: VTSMSTQTK, peptide start residue: 82)”, the log2 fold change was -0.13.
As for “UniProt Q8BMJ2 (peptide sequence: NMETFCEESR, peptide start residue: 551)”, the figure is 0.217; as for “UniProt Q8BUV3 (peptide sequence: GKTLIINLPGSKK, peptide start residue: 137)”, -1.04.
With “UniProt Q8BQJ6 (peptide sequence: VLHGVSDTVAAHQSEGLR, peptide start residue: 109)”, the log2 fold change is 0.46.
As to “UniProt Q8BRH4 (peptide sequence: GPLTTGTSDHFTKPSPR, peptide start residue: 1993)”, the log2 fold change turned out to be 0.449.
Take “UniProt Q8BLR9 (peptide sequence: MGNFQNFKPR, peptide start residue: 108)”: the log2 fold change was 0.326.
As for “UniProt Q8BK75 (peptide sequence: AQSLTYQYK, peptide start residue: 240)”, the figure is 0.0621.
As for “UniProt Q8BMC4 (peptide sequence: NQELIQDPFGHHVAR, peptide start residue: 588)”, the figure is 0.337.
Consider “UniProt Q8BK06 (peptide sequence: DLQAQLQMFR, peptide start residue: 28)”, for which the log2 fold change amounted to 0.268.
As to “UniProt Q8BJW5 (peptide sequence: QLLSIIKK, peptide start residue: 399)”, the log2 fold change is -0.146.
As for “UniProt Q8BPA8 (peptide sequence: MVHYLFPDGK, peptide start residue: 25)”, the figure is 0.404.
